PubChem BioAssay AID1159594 | NIAID | 2016
Shown is an unselected part of 756 deposited reagents. 130 of them (17%) were called active. 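Active calls cover both falls and rises of reporter activity; each row reflects one siRNA, not a gene-level verdict.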 Unmarked entries are inactive. The numbers tell different reagents against one gene apart. The record does not give: the amount of reagent.

Purpose: 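Mapping how TLR pathway genes contribute to TLR2/6 signalling in macrophage-like cells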
System: human THP-1 B5 reporter cells, PMA-differentiated into macrophage-like cells
Knock-down reagent: single siRNA against human genes
Time to read-out: 48 to 72 hours after siRNA transfection; ligand exposure 4 hours
Treatment: Pam2CSK4 (TLR2/6 agonist) stimulation for 4 hours before lysis; dose not given
Measured: 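TNF promoter reporter signal as firefly to renilla luciferase ratio, scaled per plate by median and MAD, given as robust z-score against negative controls, averaged across replicates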
Scale: TNF reporter z-score: higher = stronger TNF promoter reporter activity
Call rule: 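The depositor sorts siRNAs into z-score bands with cut-offs of 2.5, 2, 1.5 and 1; grade 50 and above, meaning |z| of 1.5 or more, counts as active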
Meaning of the calls: active = z-score beyond ±1.5 (either direction); inactive = z-score within ±1.5

{"gene": "UBE2N", "reagent no.": 1, "TNF reporter z-score, replicate mean": 0.337}
{"gene": "UBE2N", "reagent no.": 2, "TNF reporter z-score, replicate mean": -1.49}
{"gene": "UBE2N", "reagent no.": 3, "TNF reporter z-score, replicate mean": 0.869}
{"gene": "UBE2N", "reagent no.": 4, "TNF reporter z-score, replicate mean": -0.521}
{"gene": "UBE2N", "reagent no.": 5, "TNF reporter z-score, replicate mean": -0.63}
{"gene": "UBE2N", "reagent no.": 6, "TNF reporter z-score, replicate mean": 0.269}
